Experimental data from PMC1796551, “Breast cancer metastasis suppressor 1 (BRMS1) inhibits osteopontin transcription by abrogating NF-κB activation”.
No constants are given. Whether binding was seen depends on the method and setting. In cells and extracts the contact can be indirect. Some entries that bind do so weakly or less than the wild type. Tags and fused reporters may be left off the sequences shown.

Protein sequences, listed by entry. Tags and fused reporters are not part of them.
UniProt O15379: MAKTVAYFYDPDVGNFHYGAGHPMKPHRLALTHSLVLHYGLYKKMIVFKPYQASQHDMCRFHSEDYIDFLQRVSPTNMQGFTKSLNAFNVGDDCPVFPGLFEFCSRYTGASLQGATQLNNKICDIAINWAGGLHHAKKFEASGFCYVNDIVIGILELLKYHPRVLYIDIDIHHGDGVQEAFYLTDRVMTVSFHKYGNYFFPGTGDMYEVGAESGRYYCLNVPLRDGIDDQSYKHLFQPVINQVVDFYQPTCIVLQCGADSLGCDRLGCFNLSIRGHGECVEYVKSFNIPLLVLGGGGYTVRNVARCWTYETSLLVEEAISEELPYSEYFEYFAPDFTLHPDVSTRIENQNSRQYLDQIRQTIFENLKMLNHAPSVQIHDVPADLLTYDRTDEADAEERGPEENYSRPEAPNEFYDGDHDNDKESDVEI

Biological target: Histone deacetylase 3 (HDAC3), FLAG-tagged (UniProt O15379)
Test: co-IP; COS-7 cells co-transfected with FLAG-HDAC3 and myc-BRMS1; lysate immunoprecipitated with 1 ug anti-FLAG Ab, immunoblotted with anti-myc Ab (1:500)

B1: Breast cancer metastasis suppressor 1 (BRMS1), myc-tagged (protein, UniProt Q9HCU9 1-246)
chain: MPVQPPSKDTEEMEAEGDSAAEMNGEEEESEEERSGSQTESEEESSEMDDEDYERRRSECVSEMLDLEKQFSELKEKLFRERLSQLRLRLEEVGAERAPEYTEPLGGLQRSLKIRIQVAGIYKGFCLDVIRNKYECELQGAKQHLESEKLLLYDTLQGELQERIQRLEEDRQSLDLSSEWWDDKLHARGSSRSWDSLPPSKRKKAPLVSGPYIVYMLQEIDILEDWTAIKKARAAVSPQKRKSDGP
binding: binds
